Patent US20230233567A1, “BELVARAFENIB FOR USE IN CANCER TREATMENT” (Hanmi Pharm. Co., Ltd., priority 2020, published 2023)
At least one structure is not confirmed: it was looked up by name or label, or the drawing left a doubt.

How the values were obtained:
[1] = test system: P-MEK / total MEK; experiment: % P/T-MEK (ratio of P-MEK and total MEK)
Method: Belvarafenib was evaluated to measure the inhibition capability of RAF monomers and dimers. In Table 12: “A375” refers to the A375 a human melanoma cell line bearing a BRAF^V600E mutation; “IPC298” refers to the IPC298 cutaneous melanoma cell line bearing an NRAS^Q61L mutation; “A549” refers to the A549 lung adenocarcinoma cell line baring a KRAS mutation; “CSFR1” refers to the CSFR1 gene; “DDR1” refers to discoidin domain receptors DDR1; and “DDR2” refers to discoidin domain receptors DDR2. In Table 13: “% P/T−MEK” refers to the ratio of P-MEK and total MEK; “Conc 1” refers to an inhibitor first (lowest) concentration; “Conc 2” refers to an inhibitor second (intermediate) concentration; and “Conc 3” refers to an inhibitor third (highest) concentration. In Table 13, LXH254 refers to a drug having CAS No.: 1800398-38-2 and the following structure: […]

[2] = test system: BRAF^V600 mutant, NRAS mutant, KRAS mutant, and RAS/RAF wild type cells; experiment: 3-day cell viability, panel of 142 cell lines; format: cell-based; conditions: FIG. 8
[3] = test system: HT29, A375, MEL-JUSO, IPC-298 cells; experiment: Clonogenic assay; format: cell-based, human; conditions: 8 days culture, crystal violet, FIG. 9
[4] = test system: BRAF^V600 mutant, NRAS mutant, KRAS mutant, and RAS/RAF wild type cell lines; experiment: 3-day cell viability, panel of 27 skin cell lines; format: cell-based, human; conditions: FIGS. 10A, 10B, 11
[5] = test system: A375 (BRAF^V600E mutant) xenograft; experiment: A375 tumor volume model; format: in vivo, mouse; conditions: oral once per day for 29 days; belvarafenib 3, 10, 30 mg/kg; dabrafenib 100 mg/kg
[6] = test system: HCT-116 (KRAS^G13D); experiment: HCT-116 tumor volume model; format: in vivo, mouse; conditions: oral once per day for 14 days; belvarafenib 10, 30 mg/kg
[7] = test system: SK-MEL-30 (NRAS^Q61K mutant) xenograft; experiment: SK-MEL-30 tumor volume model; format: in vivo, mouse; conditions: oral once per day for 28 days; belvarafenib 15, 30 mg/kg; dabrafenib 100 mg/kg
[8] = test system: pMEK and pERK; experiment: Pharmacodynamic assessment of patient tumor tissues; conditions: patients treated with belvarafenib (data not shown)
[9] = Conc 1, first (lowest) concentration
[10] = Conc 2, second (intermediate) concentration
[11] = Conc 3, third (highest) concentration

SMILES	% P/T-MEK [1, 9] [%]	% P/T-MEK [1, 10] [%]	% P/T-MEK [1, 11] [%]	inhibition of cell viability [2]	inhibition of colony growth [3]	inhibition of cell viability [4]	tumor volume [5]	tumor volume [6]	tumor volume [7]	pMEK and pERK in patient tissues [8]
Cc1ccc2c(Nc3cccc(Cl)c3F)nccc2c1NC(=O)c1csc2c(N)ncnc12 [Belvarafenib]	75	60	20	inhibits BRAF^V600 mutant and NRAS mutant tumor cell lines	inhibits colony cell growth in BRAF^V600E and NRAS mutant cell lines	exhibits single agent activity in BRAF^V600E mutant and NRAS mutant melanoma tumor cell lines	more effective at decreasing tumor volume than either the vehicle or dabrafenib	potent in vivo anti-tumor activity against BRAF, KRAS and NRAS mutants	more effective at decreasing tumor volume than either the vehicle or dabrafenib	decreases in pMEK and pERK were observed
CCCS(=O)(=O)Nc1ccc(F)c(C(=O)c2c[nH]c3ncc(-c4ccc(Cl)cc4)cc23)c1F [Vemurafenib, reference compound]	130	150	125	–	–	can inhibit BRAF^V600E mutant cell lines but is unable to inhibit NRAS mutant, KRAS mutant, or RAS/RAF wild type cell lines	–	–	–	–
